# Primary screen of a compound library

Chains of the proteins cited; added tags and fusions are not shown. Residues count along the entry.
UniProt Q4DA54, 1-478: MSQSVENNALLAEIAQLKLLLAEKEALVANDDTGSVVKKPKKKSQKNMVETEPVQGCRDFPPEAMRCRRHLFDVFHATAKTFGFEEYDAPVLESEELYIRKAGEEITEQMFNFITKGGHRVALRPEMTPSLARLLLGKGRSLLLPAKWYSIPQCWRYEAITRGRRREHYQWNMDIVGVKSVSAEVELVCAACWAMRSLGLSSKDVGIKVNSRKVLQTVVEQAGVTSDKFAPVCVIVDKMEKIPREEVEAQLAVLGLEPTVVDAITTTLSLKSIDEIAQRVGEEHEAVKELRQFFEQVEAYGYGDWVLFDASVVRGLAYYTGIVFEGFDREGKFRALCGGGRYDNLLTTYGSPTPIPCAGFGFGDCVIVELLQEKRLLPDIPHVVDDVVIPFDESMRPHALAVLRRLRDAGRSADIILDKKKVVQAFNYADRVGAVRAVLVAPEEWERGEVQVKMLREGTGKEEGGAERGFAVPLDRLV

Data taken from ChEMBL document CHEMBL3988442, “University of Dundee, Small-Polar-MMV Screening Library” (2021).

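Enzyme assay of histidyl-tRNA synthetase; the read-out is not stated. Target: Histidine-tRNA ligase, Trypanosoma cruzi CL Brener (UniProt Q4DA54). Tested at 30 µM. Higher reads as stronger inhibition (inferred: compounds with an IC50 in retests scored well above the rest). About 69,000 compounds were tested under these conditions; 0.045% (about 31) showed 50% or more at least once.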

Each number is a percent effect as filed.
The record does not define 0% and 100%; most values in the screen are far below 50% and negative numbers occur (in some assays of this library far below -100).
This is an unselected part of the compounds tested.

{"structure": "CCS(=O)(=O)N1CCC(c2nccn2Cc2ccncc2)CC1", "effect": 5.978}
{"structure": "Cc1nnc(C2CCN(c3ncccn3)CC2)o1", "effect": 7.752}
{"structure": "CCNC(=O)NCc1ccccc1NS(=O)(=O)c1ccccc1", "effect": 1.064}
{"structure": "Cc1ccccc1CC1(CO)CCCN(c2ncccc2C#N)C1", "stereo": "configuration not stated", "effect": 6.667}
{"structure": "CC(C)OC(=O)CCNC(=O)Nc1cccc2ncccc12", "effect": -0.6494}
{"structure": "O=C(C1CCOC1)N1CCC2(CCNCC2)C1", "stereo": "configuration not stated", "effect": 3.883}
{"structure": "Cc1cc(CN2CCC(CNC(=O)C3(c4ccccc4)CC3)C2)[nH]n1", "stereo": "configuration not stated", "effect": 9.783}
{"structure": "Cn1ccc(C(=O)NC2CCC23CCN(C(=O)c2ccccn2)CC3)c1", "stereo": "configuration not stated", "effect": 11.82}
{"structure": "O=C(CCC1CC1)N1C[C@@H](CN2CCCC2)[C@@H](CO)C1", "effect": 3.347}
{"structure": "Cc1ccc(N2CC[C@H](OCC3CC3)[C@@H]2Cc2cccnc2)nn1", "effect": 11.73}
{"structure": "Cc1nn(C)c(C)c1NC(=O)CN1CCCC1c1c(C)nn(C)c1C", "stereo": "configuration not stated", "effect": 5.523}
{"structure": "Oc1nc(N2CCOCC2)nc2c1CCN(Cc1cccnc1)CC2", "effect": 2.703}
{"structure": "CC(C)NC(=O)CS(=O)(=O)c1cc2c(cc1Cl)OCCO2", "effect": 10.34}
{"structure": "O=C(O)c1csc(S(=O)(=O)Nc2cccc(OC(F)F)c2)c1", "effect": -1.527}
{"structure": "O=S1(=O)C[C@@H]2[C@H](C1)N(Cc1ncc[nH]1)CCN2CC1CC1", "effect": 5}
{"structure": "CCN(CC)S(=O)(=O)NC(C)C(=O)N(C)C", "stereo": "configuration not stated", "effect": 7.843}
{"structure": "CN(C)CCCNC(=O)c1cc(Cl)ccc1Cl", "effect": 4.95}
{"structure": "Cc1cc(NCC2CCCCC2)n2ncnc2n1", "effect": 4.545}
{"structure": "COCCN1CCC(CNC(=O)c2c[nH]c(=O)c(Cl)c2)CC1", "effect": 0}
{"structure": "COc1cccc(COCC(=O)NC(C(N)=O)c2ccccc2)c1", "stereo": "configuration not stated", "effect": 6.061}
{"structure": "O=C(CCc1cscn1)N1CCCC1c1noc(C2CC2)n1", "stereo": "configuration not stated", "effect": 4.511}
{"structure": "O=C(c1nn[nH]c1Nc1ccc(Cl)cc1)N1CCCCCC1", "effect": -1.754}
{"structure": "Cc1nc(C)n(CC2CCCN(Cc3cn4c(C)cccc4n3)C2)n1", "stereo": "configuration not stated", "effect": 1.13}
{"structure": "CCN(CC)C(=O)[C@@H]1C[C@@H](N)CN1c1nc(N2CCCC2)nc(C)c1C", "effect": 3.226}
{"structure": "Cc1ccc(S(C)(=O)=O)cc1NCC(=O)NCCC1=CCCCC1", "effect": 8.995}
{"structure": "NC(=O)CNC(c1ccccc1)c1ccccc1", "effect": 8.808}
{"structure": "CSCC(=O)N1CCOC(c2nc(C)n[nH]2)C1", "stereo": "configuration not stated", "effect": 9.901}
{"structure": "O=C(CCCOc1ccc(F)cc1F)N1CCCC(n2cccn2)C1", "stereo": "configuration not stated", "effect": 8.092}
{"structure": "c1cc(CNc2ccc(-c3nc(C4CC4)no3)cn2)no1", "effect": 7.097}
{"structure": "CN1CCN(C[C@H]2CC[C@@H](Cc3ccc4c(c3)OCO4)O2)CC1", "effect": 2.703}
{"structure": "Cc1nc(CN2C(=O)CCC23CCN(Cc2ccccn2)CC3)cs1", "effect": 6.667}
{"structure": "CC(C)CN1CCC2(C=C(C(=O)N(C)C)c3ccccc32)CC1", "effect": 7.735}
{"structure": "Cc1ccsc1CN(C)c1cc(N2CCCC2CO)ncn1", "stereo": "configuration not stated", "effect": 7.182}
{"structure": "COc1cc(Cl)c(C)cc1-n1nnc(C(=O)O)c1C", "effect": 9.268}
{"structure": "CCS(=O)(=O)c1ncc(CN(C)Cc2ccccc2OC)n1CCOC", "effect": 0.5025}
{"structure": "NC(=O)N1CCCC(C(=O)N2CCc3c(nc(CC4CC4)[nH]c3=O)C2)C1", "stereo": "configuration not stated", "effect": 5.464}
{"structure": "Cc1cc(C)c2nc(C3CC3)cc(C(=O)N3CCCC3C(N)=O)c2c1", "stereo": "configuration not stated", "effect": 3.982}